In article PMC11806106:
Results are given in words; binding and its absence hold for the method and conditions named. In cells and extracts the contact can be indirect. Some binding calls cover weakened binding; strength is not graded here.

Sequences of proteins named here, by UniProt entry; tags and fusion partners are left off.
UniProt P33535, whole entry: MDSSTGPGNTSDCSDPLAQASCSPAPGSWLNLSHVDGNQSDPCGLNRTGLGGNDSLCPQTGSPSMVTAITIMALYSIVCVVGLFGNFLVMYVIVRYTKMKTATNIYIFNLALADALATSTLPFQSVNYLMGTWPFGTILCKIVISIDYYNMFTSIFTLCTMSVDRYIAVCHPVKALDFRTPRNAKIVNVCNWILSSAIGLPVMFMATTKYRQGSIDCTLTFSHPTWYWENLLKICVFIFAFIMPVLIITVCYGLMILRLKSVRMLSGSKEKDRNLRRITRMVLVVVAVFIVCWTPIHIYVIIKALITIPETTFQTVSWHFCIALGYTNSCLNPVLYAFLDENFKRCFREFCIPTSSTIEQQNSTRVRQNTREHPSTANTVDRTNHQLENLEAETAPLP
UniProt P32120, whole entry: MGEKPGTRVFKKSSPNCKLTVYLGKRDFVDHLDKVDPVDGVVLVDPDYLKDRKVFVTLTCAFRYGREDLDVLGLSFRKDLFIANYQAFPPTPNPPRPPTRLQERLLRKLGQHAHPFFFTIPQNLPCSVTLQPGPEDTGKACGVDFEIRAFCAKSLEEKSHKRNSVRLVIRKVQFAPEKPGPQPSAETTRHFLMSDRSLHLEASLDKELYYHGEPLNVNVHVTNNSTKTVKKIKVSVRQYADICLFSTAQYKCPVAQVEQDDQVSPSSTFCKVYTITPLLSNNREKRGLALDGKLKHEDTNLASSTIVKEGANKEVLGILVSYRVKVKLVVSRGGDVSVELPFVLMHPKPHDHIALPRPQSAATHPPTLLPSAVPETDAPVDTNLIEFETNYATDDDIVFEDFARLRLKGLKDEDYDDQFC

Legend:
[1] = molecular target: MOR-nLuc (rat µ opioid receptor, wild type, with C-terminal nLuc) (rat) (UniProt P33535); assay: FRET or BRET; BRET in living HEK293T cells transfected with MOR-nLuc, sYFP-Arrestin3 and GRK2; 96-well plate reader, 37°C, external buffer with 1 µM 6H-F-Colenterazine; increasing concentrations of agonist (DAMGO, fentanyl, methadone, Met-enkephalin), then saturating DAMGO
[2] = molecular target: MOR-nLuc (rat µ opioid receptor, wild type, with C-terminal nLuc) (rat) (UniProt P33535); assay: FRET or BRET; as a1, with the partial agonist morphine as the agonist
[3] = molecular target: MOR-nLuc (rat µ opioid receptor, wild type, with C-terminal nLuc) (rat) (UniProt P33535); assay: FRET or BRET; as a1, with the partial agonist buprenorphine as the agonist

Substance: sYFP-Arrestin3 (bovine Arrestin3 with sYFP2) (from UniProt P32120 1-420)
- binding [1]: binds
- binding [2]: binds weakly
- binding [3]: no binding (condition: with buprenorphine as the agonist)
